Test results taken from US9861600B2, “Methods and compositions for treating and identifying compounds to treat age-related macular degeneration treatment” (Arizona Board of Regents on behalf of the University of …, priority 2008, dated 2018).
For at least one compound, name, drawing or mass did not settle the structure.

Sequences of proteins named here, by UniProt entry; tags and fusion partners are left off. A change or cut given only in a name is not applied to a line headed by its entry.
UniProt P51810: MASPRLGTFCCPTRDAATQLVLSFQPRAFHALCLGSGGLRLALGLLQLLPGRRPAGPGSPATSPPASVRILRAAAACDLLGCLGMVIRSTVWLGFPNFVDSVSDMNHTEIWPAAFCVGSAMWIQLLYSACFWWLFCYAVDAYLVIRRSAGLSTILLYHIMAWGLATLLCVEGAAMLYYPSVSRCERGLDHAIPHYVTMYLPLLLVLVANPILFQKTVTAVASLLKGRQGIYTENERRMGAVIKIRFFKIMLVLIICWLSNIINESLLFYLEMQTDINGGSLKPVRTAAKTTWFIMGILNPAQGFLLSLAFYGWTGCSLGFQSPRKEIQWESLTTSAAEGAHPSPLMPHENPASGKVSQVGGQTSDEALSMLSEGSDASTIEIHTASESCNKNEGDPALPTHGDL

Target: OA1 (Homo sapiens, UniProt P51810)
Experiment: Measurement of cAMP in CHO transfected to express OA1
Assay type: cell-based
Design: expressed in transfected cells; host or cells: CHO cells (ATCC)
Conditions: forskolin treatment (positive control 1 μM)

Structure (SMILES): C=C[C@@]1(C)CC(=O)[C@]2(O)[C@@]3(C)[C@@H](O)CCC(C)(C)[C@@H]3[C@H](O)[C@H](OC(C)=O)[C@@]2(C)O1 [forskolin]
- cAMP levels: increase in cAMP levels
